Test results reported in patent US20170267764A1 (INNATE PHARMA, published 2017).
These are yes or no findings as the source states them, for the method shown. Some entries that bind do so weakly or less than the wild type.

Experiments:
[1] = molecular target: T1, human MICA allele MICA*008 (human, UniProt Q29983 24-297); experiment: flow cytometry, C1R-MICA*008 transfectant cells
T1 chain: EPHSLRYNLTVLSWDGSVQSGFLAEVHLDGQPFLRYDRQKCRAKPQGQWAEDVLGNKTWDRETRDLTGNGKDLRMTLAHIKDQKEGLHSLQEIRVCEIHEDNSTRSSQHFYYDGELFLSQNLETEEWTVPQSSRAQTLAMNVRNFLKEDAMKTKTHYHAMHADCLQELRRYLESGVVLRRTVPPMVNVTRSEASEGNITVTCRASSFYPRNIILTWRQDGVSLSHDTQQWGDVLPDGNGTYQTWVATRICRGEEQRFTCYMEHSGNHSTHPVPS
Experimental: (§1) The binding of the antibodies in Table 2 of Example 1 were tested for binding to MICA-expressing C1R transfectant cells (ATCC reference CRL-1993™) transfected with RSV.5neo vectors (GenBank (NCBI) under Accession number M83237), as described in Salih et al. (2003) Blood 102(4): […], referred to as C1R-MICA*001, C1R-MICA*004, C1R-MICA*007 and C1R-MICA*008. Binding was analyzed by flow cytometry.
(§2) Cells were harvested and stained in PBS 1×/BSA 0.2%/EDTA 2 mM buffer during 30 minutes at 4° C. using a dose-range of the anti-MICA mAbs. After two washes in staining buffer, cells were stained for 30 min at 4° C. with mouse anti-human IgG1-PE monoclonal antibodies (1/11). After two washes, stainings were acquired on a BD FACS Canto II and analyzed using the FlowJo software.

[2] = molecular target: T2, human MICA allele MICA*007 (human, UniProt Q29983 24-297); experiment: flow cytometry, C1R-MICA*007 transfectant cells
T2 construct: Expressed on transfected C1R cells; also called MICA*07; C1R-MICA*007
T2 chain: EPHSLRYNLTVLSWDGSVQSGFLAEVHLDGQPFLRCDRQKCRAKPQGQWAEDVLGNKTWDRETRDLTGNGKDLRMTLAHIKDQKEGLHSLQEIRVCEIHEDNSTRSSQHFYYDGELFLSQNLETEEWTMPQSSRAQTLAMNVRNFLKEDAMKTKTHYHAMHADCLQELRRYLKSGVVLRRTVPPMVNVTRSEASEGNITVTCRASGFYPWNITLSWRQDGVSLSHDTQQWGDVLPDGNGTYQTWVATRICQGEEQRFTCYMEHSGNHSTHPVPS
Experimental: as §1, §2

[3] = molecular target: T3, human MICA allele MICA*004 (human, UniProt Q29983 24-297); experiment: flow cytometry, C1R-MICA*004 transfectant cells
T3 construct: Expressed on transfected C1R cells; also called MICA*04; C1R-MICA*004
T3 chain: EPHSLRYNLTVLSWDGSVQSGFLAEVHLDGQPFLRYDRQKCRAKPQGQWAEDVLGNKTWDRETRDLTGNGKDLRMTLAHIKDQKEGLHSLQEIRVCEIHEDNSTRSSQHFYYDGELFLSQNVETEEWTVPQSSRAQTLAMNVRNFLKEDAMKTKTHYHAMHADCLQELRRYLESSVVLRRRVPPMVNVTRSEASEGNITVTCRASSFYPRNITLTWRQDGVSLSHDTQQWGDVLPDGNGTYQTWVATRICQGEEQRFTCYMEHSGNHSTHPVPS
Experimental: as §1, §2

[4] = molecular target: T4, human MICA allele MICA*001 (human, UniProt Q29983 24-297); experiment: flow cytometry, C1R-MICA*001 transfectant cells
T4 sequence: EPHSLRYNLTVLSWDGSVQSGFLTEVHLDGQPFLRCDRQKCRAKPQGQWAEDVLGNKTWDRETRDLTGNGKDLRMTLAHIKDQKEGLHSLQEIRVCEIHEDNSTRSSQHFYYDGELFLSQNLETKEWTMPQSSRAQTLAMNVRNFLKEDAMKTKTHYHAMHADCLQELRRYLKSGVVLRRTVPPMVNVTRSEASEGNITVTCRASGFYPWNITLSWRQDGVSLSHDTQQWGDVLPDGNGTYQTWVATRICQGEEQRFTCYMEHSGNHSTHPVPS
Experimental: as §1, §2

Measured: binding

B1: mAb4 (antibody, V domains shown)
VH: QVQLQESGPGLVKPSETLSLTCTVSGYSITSDYAWNWIRQPPGKGLEWMGFVSYSGTTKYNPSLKSRVTISRDTSKNQFSLKLSSVTAADTAVYYCARGYGFDYWGQGTTVTVSS
VL: EIVLTQSPATLSLSPGERATLSCSATSSISSIYFHWYQQKPGQAPRLLIYRTSNLASGIPARFSGSGSGTDYTLTISSLEPEDFAVYYCQQGTTIPFTFGQGTKLEIK
notes: Produced in CHO cells as human IgG1 with huCk constant domain
binds: [1] | [2] | [3] | [4]

B2: mAb5 (antibody, V domains shown)
VH: QVQLQESGPGLVKPSETLSLTCTVSGYSITSDYAWNWIRQPPGKGLEWMGFVSYSGTTKYNPSLKSRVTISRDTSKNQFSLKLSSVTAADTAVYYCARGYGFDYWGQGTTVTVSS
VL: EIVLTQSPATLSLSPGERATLSCSATSSISSIYFHWYQQKPGQAPRLLIYRTSNLASGIPARFSGSGSGTSYTLTISSLEPEDFAVYYCQQGTTIPFTFGQGTKLEIK
notes: as for B1
binds: [1] | [2] | [3] | [4]

B3: mAb6 (antibody, V domains shown)
VH: QVQLQESGPGLVKPSETLSLTCTVSGYSITSDYAWNWIRQPPGKGLEWMGFVSYSGTTKYNPSLKSRVTISRDTSKNQFSLKLSSVTAADTAVYYCARGYGFDYWGQGTTVTVSS
VL: EIVLTQSPATLSLSPGERATLSCSATSSISSIYFHWYQQKPGQAPRLLIYRTSNLASGIPARFSGSGSGTDYTLTISSLEPEDVAVYYCQQGTTIPFTFGQGTKLEIK
notes: as for B1
binds: [1] | [2] | [3] | [4]

B4: mAb7 (antibody, V domains shown)
VH: QVQLQESGPGLVKPSETLSLTCTVSGYSITSDYAWNWIRQPPGKGLEWMGFVSYSGTTKYNPSLKSRVTISRDTSENQFSLKLSSVTAADTAVYYCARGYGFDYWGQGTTVTVSS
VL: EIVLTQSPATLSLSPGERATLSCSATSSISSIYFHWYQQKPGQAPRLLIYRTSNLASGIPARFSGSGSGTDYTLTISSLEPEDFAVYYCQQGTTIPFTFGQGTKLEIK
notes: as for B1
binds: [1] | [2] | [3] | [4]

B5: mAb8 (antibody, V domains shown)
VH: QVQLQESGPGLVKPSETLSLTCTVSGYSITSDYAWNWIRQPPGKGLEWMGFVSYSGTTKYNPSLKSRVTISRDTSENQFSLKLSSVTAADTAVYYCARGYGFDYWGQGTTVTVSS
VL: EIVLTQSPATLSLSPGERATLSCSATSSISSIYFHWYQQKPGQAPRLLIYRTSNLASGIPARFSGSGSGTSYTLTISSLEPEDFAVYYCQQGTTIPFTFGQGTKLEIK
notes: as for B1
binds: [1] | [2] | [3] | [4]

B6: mAb9 (antibody, V domains shown)
VH: QVQLQESGPGLVKPSETLSLTCTVSGYSITSDYAWNWIRQPPGKGLEWMGFVSYSGTTKYNPSLKSRVTISRDTSENQFSLKLSSVTAADTAVYYCARGYGFDYWGQGTTVTVSS
VL: EIVLTQSPATLSLSPGERATLSCSATSSISSIYFHWYQQKPGQAPRLLIYRTSNLASGIPARFSGSGSGTDYTLTISSLEPEDVAVYYCQQGTTIPFTFGQGTKLEIK
notes: as for B1
binds: [1] | [2] | [3] | [4]

B7: mAb10 (antibody, V domains shown)
VH: QVQLQESGPGLVKPSETLSLTCTVSGYSITSDYAWNWIRQPPGKGLEWMGFVSYSGTTKYNPSLKSRITISRDTSENQFSLKLSSVTAADTAVYYCARGYGFDYWGQGTTVTVSS
VL: EIVLTQSPATLSLSPGERATLSCSATSSISSIYFHWYQQKPGQAPRLLIYRTSNLASGIPARFSGSGSGTDYTLTISSLEPEDFAVYYCQQGTTIPFTFGQGTKLEIK
notes: as for B1
binds: [1] | [2] | [3] | [4]

B8: mAb11 (antibody, V domains shown)
VH: QVQLQESGPGLVKPSETLSLTCTVSGYSITSDYAWNWIRQPPGKGLEWMGFVSYSGTTKYNPSLKSRITISRDTSENQFSLKLSSVTAADTAVYYCARGYGFDYWGQGTTVTVSS
VL: EIVLTQSPATLSLSPGERATLSCSATSSISSIYFHWYQQKPGQAPRLLIYRTSNLASGIPARFSGSGSGTSYTLTISSLEPEDFAVYYCQQGTTIPFTFGQGTKLEIK
notes: as for B1
binds: [1] | [2] | [3] | [4]

B9: mAb12 (antibody, V domains shown)
VH: QVQLQESGPGLVKPSETLSLTCTVSGYSITSDYAWNWIRQPPGKGLEWMGFVSYSGTTKYNPSLKSRITISRDTSENQFSLKLSSVTAADTAVYYCARGYGFDYWGQGTTVTVSS
VL: EIVLTQSPATLSLSPGERATLSCSATSSISSIYFHWYQQKPGQAPRLLIYRTSNLASGIPARFSGSGSGTDYTLTISSLEPEDVAVYYCQQGTTIPFTFGQGTKLEIK
notes: as for B1
binds: [1] | [2] | [3] | [4]
